Results from one PubChem assay

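Immortalized human myoblasts carrying a HiBiT tag on native HLA-B, stimulated with interferon-beta; luminescence tracks MHC class I level after 24 hours of compound exposure.
Each compound was run as a dilution series reaching about 46 µM at the top.
The number is the AC50 potency for lowering the interferon-induced signal; a lower value means a more potent inhibitor.
Calls come from NCATS curve class and activity score; scores of 1 to 39 mark inconclusive, such as weak, partial, poorly fitted or top-dose-only curves.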

Values are in µM.
Every entry below has the call inconclusive.
These entries are mostly ones the record files as inconclusive; other results of the assay are not listed here.
Potencies fitted to partial, single-point or poorly fitting curves are rough.
Activity scores are not listed here.

Compound	fitted potency (µM)	curve as filed
Cc1cc(OCCOCC[N+](C)(C)Cc2ccccc2)ccc1C(C)(C)CC(C)(C)C	14.87	inhibitor, single point
Cc1cc2c(cc1CC(=O)c1sccc1S(=O)(=O)Nc1onc(C)c1Cl)OCO2	13.25	inhibitor, partial curve, poor fit
CCCNC(=O)NS(=O)(=O)c1ccc(Cl)cc1	13.25	inhibitor, partial curve
O=c1cc[nH]c(=S)[nH]1	14.87	inhibitor, partial curve, poor fit
C#C[C@]1(O)CC[C@H]2[C@@H]3CCC4=CC(=O)CC[C@@H]4[C@H]3CC[C@@]21C	14.87	inhibitor, partial curve, poor fit
C#C[C@]1(OC(C)=O)CC[C@H]2[C@@H]3CCC4=C/C(=N/O)CC[C@@H]4[C@H]3CC[C@@]21CC	21.01	inhibitor, partial curve, poor fit
CC1=C(C(=O)OC(C)C)C(c2cccc([N+](=O)[O-])c2)C(C(=O)OC2CN(C(c3ccccc3)c3ccccc3)C2)=C(N)N1 (stereo not given)	14.87	inhibitor, single point
COC(=O)C1=C(C)NC(C)=C(C(=O)OC(C)(C)CN(C)CCC(c2ccccc2)c2ccccc2)C1c1cccc([N+](=O)[O-])c1 (stereo not given)	33.29	inhibitor, single point
CCCCCCCCCCCC[N+](C)(C)Cc1ccccc1	33.29	inhibitor, single point
C#C[C@]1(OC(C)=O)CC[C@H]2[C@@H]3CCC4=C[C@@H](OC(C)=O)CC[C@@H]4[C@H]3CC[C@@]21C	33.29	inhibitor, single point
NC(N)=N/N=C/c1c(Cl)cccc1Cl	37.36	inhibitor, single point
NCCNc1cccc2ccccc12	23.57	inhibitor, single point
Cc1c(C)n(CCN(C)C)c2ccc(C(=O)OCCN(C)C)cc12	11.81	inhibitor, partial curve
COCCCC/C(=N\OCCN)c1ccc(C(F)(F)F)cc1	33.29	inhibitor, single point
OC1(c2ccc(Cl)c(C(F)(F)F)c2)CCN(CCCC(c2ccc(F)cc2)c2ccc(F)cc2)CC1	21.01	inhibitor, single point
Cc1c(-c2ccccc2)oc2c(C(=O)OCCN3CCCCC3)cccc2c1=O	21.01	inhibitor, single point
C[C@]12CC[C@H]3[C@@H](CCC4=CC(=O)CC[C@@]43C)[C@@H]1CC[C@@H]2C(=O)CO	37.36	inhibitor, single point
C=C1c2cccc(O)c2C(O)=C2C(=O)[C@]3(O)C(O)=C(C(N)=O)C(=O)[C@@H](N(C)C)[C@@H]3[C@@H](O)[C@H]12	37.36	inhibitor, single point
CCN(CC)CCOc1ccccc1C(=O)CCc1ccccc1	37.36	inhibitor, single point
O=C1c2cccc3c2[C@H](CCC3)CN1[C@@H]1CN2CCC1CC2	14.87	inhibitor, partial curve

The first 2 entries again:

| Compound | fitted potency (µM) | curve as filed |
|---|---|---|
| `Cc1cc(OCCOCC[N+](C)(C)Cc2ccccc2)ccc1C(C)(C)CC(C)(C)C` | 14.87 | inhibitor, single point |
| `Cc1cc2c(cc1CC(=O)c1sccc1S(=O)(=O)Nc1onc(C)c1Cl)OCO2` | 13.25 | inhibitor, partial curve, poor fit |

Source: PubChem BioAssay AID1347407 (NCATS, 2020).